# Source: patent US20100255006A1
# Chains of the proteins cited; added tags and fusions are not shown. Residues count along the entry.
# UniProt Q9ULZ3, residues 107-195: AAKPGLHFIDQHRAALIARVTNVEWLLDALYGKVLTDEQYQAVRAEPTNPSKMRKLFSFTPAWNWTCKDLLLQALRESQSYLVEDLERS
# These are yes or no findings as the source states them, for the method shown. Some entries that bind do so weakly or less than the wild type.
# B1: CARD of CARD-12 (mammalian two-hybrid construct) (protein, UniProt Q9NPP4 1-88, looked up, not shown: large carriers)
# chain: MNFIKDNSRALIQRMGMTVIKQITDDLFVWNVLNREEVNIICCEKVEQDAARGIIHMILKKGSESCNLFLKSLKEWNYPLFQDLNGQS
# Target: CARD of CARD-5 (mammalian two-hybrid construct) (UniProt Q9ULZ3)
# Assay: mammalian two-hybrid in 293T cells, luciferase reporter
binder,measurement,value
B1,binding,binds
